Reference: PubChem BioAssay AID1224828 (NIAID, 2016)

- Aim: 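Knock-downs that increase or decrease LPS-induced p65 nuclear translocation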 (primary screen)
- System: mouse RAW264.7 G9 macrophage reporter cells (GFP-p65, Tnf promoter-mCherry)
- Reagents: siRNA pool against mouse genes, 100 nM
- Time to read-out: 2 days siRNA transfection, then 40 min LPS before fixation
- Conditions: LPS (Salmonella minnesota R595) at 10 ng/ml
- Measurement: 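Microscopy ratio of nuclear to perinuclear-ring GFP-p65 signal, scaled to the plate median; gene score is the average of two replicate robust z-scores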
- Direction: p65 translocation robust z-score: higher = more nuclear NF-kappaB p65 after LPS than the plate median; nuclear/cytoplasmic p65 ratio: higher = more nuclear NF-kappaB p65
- Active means: 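Active if robust z is above 3.3 (negative regulators) or below -1.56, the Tlr4 control median (positive regulators); activity score 50 or more; control wells not called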
- Calls: active = hit (p65 shift raised or lowered); inactive = no clear change
Shown is one part, drawn at random, of about 17,000 reagents tested. 762 of all reagents (4.5%) were called active. 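Active calls include both raised and lowered p65 entry, mostly lowered; wells with fewer than 50 cells lack a z-score.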 The raw values are shown without normalisation. No sequences are given here.

no.	target	p65 translocation robust z-score	nuclear/cytoplasmic p65 ratio, rep 1	nuclear/cytoplasmic p65 ratio, rep 2	low cell count flag	Call
1	Stpg2 (sperm tail PG rich repeat containing 2)	1.98	1.88	2.17	enough cells to score	inactive
2	Rad51c (RAD51 paralog C)	0.64	1.62	1.6	enough cells to score	inactive
3	Hoxc9 (homeobox C9)	0.86	1.56	1.48	enough cells to score	inactive
4	Ndufa13 (NADH:ubiquinone oxidoreductase subunit A13)	-0.07	1.58	1.58	enough cells to score	inactive
5	Vsig4 (V-set and immunoglobulin domain containing 4)	-1.12	1.31	1.77	enough cells to score	inactive
6	Ercc4	0.53	1.55	1.43	enough cells to score	inactive
7	Or4a69 (olfactory receptor family 4 subfamily A member 69)	-1.57	1.37	1.15	enough cells to score	active
8	Or5h26 (olfactory receptor family 5 subfamily H member 26)	-0.9	1.45	1.33	enough cells to score	inactive
9	Fn3krp (fructosamine 3 kinase related protein)	-0.49	1.62	1.31	enough cells to score	inactive
10	Psmb5 (proteasome (prosome, macropain) subunit, beta type 5)	-0.24	1.29	1.24	enough cells to score	inactive
11	Nubp2 (nucleotide binding protein 2)	-0.99	1.33	1.27	enough cells to score	inactive
12	Rnf213 (ring finger protein 213)	0.67	1.71	1.86	enough cells to score	inactive
13	Zfp30 (zinc finger protein 30)		1.44	1.2	fewer than 50 cells per well; well left out of scoring	inactive
14	Dmwd (dystrophia myotonica-containing WD repeat motif)	-1.5	1.34	1.13	enough cells to score	inactive
15	Neu2 (neuraminidase 2)	-0.59	1.69	1.53	enough cells to score	inactive
16	Jund (jun D proto-oncogene, AP-1 transcription factor subunit)	-1.07	1.33	1.36	enough cells to score	inactive
17	Slc12a3	-0.37	1.48	1.46	enough cells to score	inactive
18	Aldh3b3 (aldehyde dehydrogenase 3 family, member B3)	-0.84	1.35	1.24	enough cells to score	inactive
19	Rpgr (retinitis pigmentosa GTPase regulator)	-0.01	1.44	1.2	enough cells to score	inactive
20	Incenp (inner centromere protein)		1.21	1.2	fewer than 50 cells per well; well left out of scoring	inactive
21	Kng2 (kininogen 2)	-0.63	1.38	1.31	enough cells to score	inactive
22	Fes (Fes proto-oncogene, tyrosine kinase)	0.7	1.9	1.4	enough cells to score	inactive

Continued (2 carried over from the part before).
no.	target	p65 translocation robust z-score	nuclear/cytoplasmic p65 ratio, rep 1	nuclear/cytoplasmic p65 ratio, rep 2	low cell count flag	Call
21	Kng2 (kininogen 2)	-0.63	1.38	1.31	enough cells to score	inactive
22	Fes (Fes proto-oncogene, tyrosine kinase)	0.7	1.9	1.4	enough cells to score	inactive
23	Rbm7 (RNA binding motif protein 7)	0.68	1.48	1.32	enough cells to score	inactive
24	H1f10 (H1.10 linker histone)	1.5	1.07	1.77	enough cells to score	inactive
25	Mapk1 (mitogen-activated protein kinase 1)	0.57	1.81	1.42	enough cells to score	inactive
26	Slc4a1	0.49	1.59	1.59	enough cells to score	inactive
27	Synpr (synaptoporin)	0.07	1.38	1.2	enough cells to score	inactive
28	Rab2b (RAB2B, member RAS oncogene family)	-0.99	1.44	1.28	enough cells to score	inactive
29	Jade1 (jade family PHD finger 1)	-0.03	1.43	1.24	enough cells to score	inactive
30	Exosc5 (exosome component 5)		1.32	1.18	fewer than 50 cells per well; well left out of scoring	inactive
31	Gtf2h4 (general transcription factor II H, polypeptide 4)	-0.23	1.44	1.31	enough cells to score	inactive
32	Fam131a (family with sequence similarity 131, member A)		1.11	1.17	fewer than 50 cells per well; well left out of scoring	inactive
33	Nt5e (5' nucleotidase, ecto)	-0.56	1.41	1.31	enough cells to score	inactive
34	Rab40b (Rab40B, member RAS oncogene family)	0.18	1.55	1.41	enough cells to score	inactive
35	Dcun1d1 (defective in cullin neddylation 1 domain containing 1)	0.74	1.56	1.68	enough cells to score	inactive
36	Acp6 (acid phosphatase 6, lysophosphatidic)	0.46	1.74	1.64	enough cells to score	inactive
37	Bud23 (BUD23, rRNA methyltransferase and ribosome maturation factor)	0.45	1.45	1.32	enough cells to score	inactive
38	H2-T23 (histocompatibility 2, T region locus 23)	0.02	1.45	1.37	enough cells to score	inactive
39	Khdc1a (KH domain containing 1A)	-1.12	1.37	1.73	enough cells to score	inactive
40	Oas1d (2'-5' oligoadenylate synthetase 1D)	-0.4	1.7	1.43	enough cells to score	inactive
41	4732427B05	-1.46	1.16	1.09	enough cells to score	inactive
42	Fgfr3 (fibroblast growth factor receptor 3)	2.18	2.02	1.67	enough cells to score	inactive
43	Mrtfa (myocardin related transcription factor A)	-0.89	1.27	1.28	enough cells to score	inactive
44	Capza3 (capping actin protein of muscle Z-line subunit alpha 3)	-2.55	1.21	1.36	enough cells to score	active
45	Grb2 (growth factor receptor bound protein 2)	-1.55	1.28	1.13	enough cells to score	inactive
46	Zfp318 (zinc finger protein 318)	0.09	1.41	1.27	enough cells to score	inactive
47	Fbn2 (fibrillin 2)		1.46	1.5	fewer than 50 cells per well; well left out of scoring	inactive
48	Btn1a1 (butyrophilin, subfamily 1, member A1)	-0.32	1.61	1.53	enough cells to score	inactive
49	Cand2 (cullin associated and neddylation dissociated 2 (putative))		1.42	1.09	fewer than 50 cells per well; well left out of scoring	inactive
50	G6pc1 (glucose-6-phosphatase catalytic subunit 1)	0.86	1.51	1.52	enough cells to score	inactive
51	Trpc5	-0.05	1.55	1.46	enough cells to score	inactive
52	Zfyve1 (zinc finger, FYVE domain containing 1)		1.1	1.15	fewer than 50 cells per well; well left out of scoring	inactive
53	Baalc (brain and acute leukemia, cytoplasmic)	-0.73	1.5	1.68	enough cells to score	inactive
54	Tspan31 (tetraspanin 31)	-0.79	1.46	1.35	enough cells to score	inactive
55	Rpl24 (ribosomal protein L24)		1.48	1.26	fewer than 50 cells per well; well left out of scoring	inactive
56	Crhr1 (corticotropin releasing hormone receptor 1)	-0.75	1.35	1.53	enough cells to score	inactive
57	Pcyox1l (prenylcysteine oxidase 1 like)	1.42	1.84	1.98	enough cells to score	inactive
58	Dazl (deleted in azoospermia-like)	0.98	1.7	1.7	enough cells to score	inactive
59	Mrps6 (mitochondrial ribosomal protein S6)	0.17	1.79	1.63	enough cells to score	inactive
